# Values joined by “and” are separate entries in the source; they are usually repeats but may differ in a detail not shown here. Equal values may be shown once. In all, about 300,000 compounds went through this assay and about 5,400 (1.8%) were called active. The shares of active, inactive and inconclusive entries below differ from those in the screen. Calls come from the whole dose curve; tested in HEK293 cells. A potency beside an inconclusive call is a rough fit, not a confirmed value.
# Experiment: qHTS for inhibitors of binding or entry into cells for Marburg Virus
# Settings: Marburg virus pseudotyped entry inhibition, cell reporter; series mostly up to 37.8 µM
# Potency is the fitted concentration of half-maximal effect.
row,SMILES,Potency
1,O=C(Nc1ccc(Br)cn1)c1cccc(-c2cc3ccccc3oc2=O)c1,"inconclusive: 22.4 µM [inhibitor, single point]"
2,C[C@H]1CC[C@H]2C(=O)N3[C@H](c4cccc(N5CCCC5=O)c4)[C@@H](C)CC[C@H]3C(=O)N2[C@@H]1c1cccc(N2CCCC2=O)c1,"inconclusive: 5.17 µM [inhibitor, single point]"
3,COC(=O)c1ccc(Nc2nc(C)nc3c2nnn3Cc2ccccc2)cc1,"inconclusive: 31.6 µM [activator, single point]"
4,CCC(C)(C)NC(=O)C(C)OC(=O)c1nsc(Cl)c1Cl (configuration not stated),"inconclusive: 6.51 µM [activator, single point]"
5,COc1cccc(O)c1CN1CCCC(C(=O)c2sccc2C)C1 (configuration not stated),"inconclusive: 11.2 µM [inhibitor, partial curve, poor fit]"
6,COc1ccc(/C=C2/SC(=S)N(CCC(=O)N3CCN(C)CC3)C2=O)cc1,"inconclusive: 1.26 µM [inhibitor, full curve, poor fit]"
7,Clc1ccc(/C=C/c2nc3ccccc3[nH]2)c(Cl)c1,"inconclusive: 6.51 µM [inhibitor, partial curve, poor fit]"
8,COC(=O)c1ccccc1S(=O)(=O)N(Cc1cc2cc3c(cc2[nH]c1=O)OCO3)C1CCCCC1,inactive
9,CCOC(=O)C1CCCN(CCC(C)c2ccccc2)C1 (configuration not stated),inactive
10,COc1cc(/C=C2/SC(=S)N(CC3CCCO3)C2=O)ccc1O (configuration not stated),"inconclusive: 35.5 µM [activator, single point]"
11,CCc1ccccc1N(C(=O)CCC(=O)Nc1cc(C)on1)C(C(=O)NC1CCCC1)c1ccco1 (configuration not stated),"inconclusive: 11.2 µM [inhibitor, partial curve, poor fit]"
12,CN(C)CCN[C@H]1CCC2C3CC=C4C[C@@H](O)CC[C@]4(C)C3CC[C@@]21C (some centres not stated),"inconclusive: 12.6 µM [inhibitor, single point]"
13,O=C(Cc1ccccc1)Nc1ccc(Cl)cn1,inactive
14,COc1ccc(N2CCN(S(=O)(=O)c3ccc4c(c3)NC(=O)C(C)S4)CC2)cc1 (configuration not stated),"inconclusive: 4.47 µM [inhibitor, partial curve]"
15,COc1ccc(-c2noc(CN(C(=O)c3c(-c4ccccc4Cl)noc3C)C(C)C)n2)cc1,inactive
16,Cc1cc(OCC(=O)O)c2ccccc2n1,"inconclusive: 0.73 µM [activator, full curve, poor fit]"
17,Cc1ccc(-c2nn[nH]n2)cc1Cl,"inconclusive: 5.62 µM [inhibitor, single point]"
18,CCCOc1ccc(C(=O)NC(=S)NCc2cccnc2)cc1,inactive
19,CC(C)CC1(C(=O)NCCN2CCOCC2)C=CCN1C(=O)c1ccccc1 (configuration not stated),inactive
20,COc1cc(NC(=O)C2CC3CCC2C3)c(OC)cc1Cl (configuration not stated),"inconclusive: 22.4 µM [inhibitor, single point]"
21,c1ccc(-c2cnc(-c3cccnc3)o2)cc1,"inconclusive: 5.62 µM [activator, single point]"
22,COC(=O)C1=C(C(=O)OC)[C@@H]2N(C)c3ccc(OC)cc3[C@@]23C[C@@H](C(=O)OC)N(C(=O)NC(C)(C)C)C3=N1,"inconclusive: 3.35 µM [inhibitor, partial curve, poor fit]"
23,Nc1ccc(C(=O)O)cc1[N+](=O)[O-],inactive

row,SMILES,Potency
1,CCN(CC)C(=O)c1ccccc1NS(=O)(=O)c1cccs1,"inconclusive: 35.5 µM [activator, single point]"
2,CCN(CC)CC(=O)Nc1nc(-c2ccc(Cl)cc2)cs1,inactive
3,O=C(CCC(=O)Nc1ccc(F)cc1)N/N=C/c1cccc(Br)c1,"inconclusive: 3.16 µM [inhibitor, full curve]"
4,CCc1ccc(N/C(SCc2ccccc2C)=C(/C#N)C(=O)NCc2ccco2)cc1,"inconclusive: 3.66 µM [inhibitor, partial curve, poor fit]"
5,CC1=C(C(=O)Nc2cccnc2)C(c2ccccc2Cl)n2nc(-c3ccccc3)nc2N1 (configuration not stated),"inconclusive: 0.316 µM [activator, partial curve, poor fit]"
6,COc1cccc(N=c2oc3ccc(OC)cc3cc2-c2nc3ccccc3[nH]2)c1,"inconclusive: 11.6 µM [inhibitor, partial curve, poor fit]"
7,Cc1cc(C)cc(C(=O)O/N=C(\N)c2ccc(Br)cc2)c1,inactive
8,Cc1onc(-c2ccccc2Cl)c1C(=O)OCC(=O)N1CCN(c2ccccc2)CC1,"inconclusive: 4.47 µM [activator, partial curve, poor fit]"
9,c1ccc(Cn2nnnc2C(c2ccccn2)N2CCN(c3ccccc3)CC2)cc1 (configuration not stated),inactive
10,COC(=O)c1ccccc1NC(=O)Cn1c(CCC(=O)O)ccc1-c1ccc(C)cc1,inactive
11,CCO/C=C1\SC(=S)N(c2ccc(Cl)cc2)C1=O,inactive
12,COc1cc(C(=O)Nc2cc(-c3ccccc3)[nH]n2)cc(OC)c1OC,"inconclusive: 14.6 µM [inhibitor, single point]"
13,O=C(CCN1C(=O)/C(=C/c2cccs2)SC1=S)NC1=NCCS1,inactive
14,CS(=O)(=O)Nc1cccc(C2=NN(S(C)(=O)=O)C(c3ccccc3)C2)c1 (configuration not stated),inactive
15,c1ccc2c(c1)CSc1ccccc1C2C1=NCCN1 (configuration not stated),"inconclusive: 23.1 µM [inhibitor, single point]"
16,COc1ccc(/C=C2\C(=O)NC(=S)N2C(=O)c2ccc(C)cc2)cc1,"inconclusive: 35.5 µM [activator, single point]"
17,Oc1ccc(-c2csc(Nc3cccc4ccccc34)n2)cc1O,inactive
18,COc1ccc(Nc2nc(-c3cccs3)nc3ccccc23)cc1,"inconclusive: 29.1 µM [inhibitor, single point]"
19,CCOc1ccc(N(CC(=O)Nc2ccc(OC)cc2)S(=O)(=O)c2c(C)noc2C)cc1,inactive
20,CCN1CCN(c2nc3c(C)cccn3c(=O)c2/C=C(\C#N)C(=O)NC)CC1,inactive
21,O=C(CSc1nc2ccccc2c(=O)n1CCCN1CCOCC1)Nc1cccc(S(=O)(=O)N2CCCCCC2)c1,"inconclusive: 9.2 µM [inhibitor, partial curve, poor fit] and inconclusive: 14.1 µM [inhibitor, single point]"
22,COc1cc2c(cc1N)-c1ccc(N)cc1C2,inactive
23,O=C1CC(c2ccc(F)cc2F)c2cc3c(cc2N1)OCO3 (configuration not stated),"inconclusive: 17.8 µM [inhibitor, single point]"

# 3 of these compounds in a different format.
row | SMILES | Potency
1 | CCN(CC)C(=O)c1ccccc1NS(=O)(=O)c1cccs1 | inconclusive: 35.5 µM [activator, single point]
2 | CCN(CC)CC(=O)Nc1nc(-c2ccc(Cl)cc2)cs1 | inactive
3 | O=C(CCC(=O)Nc1ccc(F)cc1)N/N=C/c1cccc(Br)c1 | inconclusive: 3.16 µM [inhibitor, full curve]

# Additional structures follow:

row,SMILES,Potency
1,O=c1c2cc(NC(=S)NCc3ccccn3)ccc2nc2n1CCCCC2,"inconclusive: 17.8 µM [activator, single point]"
2,COc1ccc(-n2c(Cc3cccn3C)nnc2SCC(=O)Nc2ccccc2OC)cc1,"inconclusive: 8.2 µM [inhibitor, partial curve, poor fit]"
3,CN1CCN(c2ccc(S(=O)(=O)N3CCOCC3)cc2NC(=O)COc2ccc(F)cc2Cl)CC1,"inconclusive: 17.8 µM [inhibitor, partial curve, poor fit]"
4,Cc1ccc(NC(=O)c2c(C)nn(-c3ccccc3)c2-n2cccc2)c(Cl)c1,inactive
5,CC(C)(C)NC(=O)CN(CCN1CCOCC1)C(=O)CNS(=O)(=O)c1ccc(Cl)cc1,"inconclusive: 7.94 µM [inhibitor, partial curve, poor fit]"
6,CC(=O)c1ccc(N2CCCCC2)c(F)c1,inactive
7,CCc1cccc(CC)c1NC(=O)Cn1nnc2sc3c(c2c1=O)CCCC3,inactive
8,O=C(CCCc1ccccc1)Nc1ccnn1C1CCN(Cc2ccc(CO)o2)CC1,"inconclusive: 31.6 µM [activator, single point]"
9,Cc1ccc(NC(=O)c2sc3ccccc3c2Cl)nc1,"inconclusive: 7.3 µM [inhibitor, partial curve, poor fit]"
10,CCC(=NCc1ccco1)c1c(O)n(-c2ccc(C)cc2)c(=O)[nH]c1=O,"inconclusive: 32.6 µM [inhibitor, partial curve, poor fit]"
11,Cc1cc(N2CCC(C)CC2)nc(-n2nc(C)cc2C)n1,"inconclusive: 10 µM [inhibitor, partial curve, poor fit]"
12,COCCn1nnnc1C(c1ccc(OC)c(OC)c1)N1CCN(c2nc3ccccc3s2)CC1 (configuration not stated),"inconclusive: 25.1 µM [inhibitor, single point]"
13,COc1ccc(C(=O)NC(=S)NC2CCCCC2)cc1,"inconclusive: 3.16 µM [activator, single point]"
14,Cc1cccc(CN2C(=O)c3ccccc3S(=O)(=O)c3ccc(C(=O)NC4CCCCC4)cc32)c1,"inconclusive: 11.2 µM [inhibitor, partial curve, poor fit]"
15,CCCS(=O)(=O)NCCc1csc(-c2ccc(OC)c(OC)c2)n1,inactive
16,COc1ccc(-c2cc(C(=O)N/N=C/c3sccc3C)c3ccccc3n2)c(OC)c1,active: 5.01 µM
17,Cc1ccc(C(=O)CC2(O)C(=O)N(Cc3ccc4c(c3)OCO4)c3ccccc32)cc1 (configuration not stated),"inconclusive: 5.62 µM [inhibitor, single point]"
18,COc1ccc(CCn2c(NN)nc3c2c(=O)[nH]c(=O)n3C)cc1,"inconclusive: 7.08 µM [inhibitor, partial curve, poor fit]"
19,O=C(Nc1ccc2c(c1)OCO2)c1cncc(Br)c1,inactive
20,Cc1[nH]c2ccccc2c1C(=O)C(=O)N1CCN(c2ccccc2Cl)CC1,"inconclusive: 10 µM [inhibitor, partial curve, poor fit]"
21,COCOCCn1cc(CN2CCS(=O)(=O)N(Cc3ccc(-c4ccc(OC)cc4)cc3)C(C)C2=O)nn1 (configuration not stated),inconclusive: 0.0004 µM [activator]

# From PubChem BioAssay AID540276 (National Center for Advancing Translational Sciences (NCATS), 2011)
